No signal at the amounts used counts as a negative. For some assays here: The exact form of at least one protein or probe is not confirmed. For some assays here: Tags and fusion partners may be left off the protein sequences shown.
Legend:
[1] = molecular target: T1, FAR (FXR) (Rattus norvegicus) (UniProt Q62735); experiment: activity in cells; details: protein in cells; protein details: CMV-driven expression in CV-1 cells; variant of hsp27-EcRE; only the site is given
T1 sequence (limits assumed): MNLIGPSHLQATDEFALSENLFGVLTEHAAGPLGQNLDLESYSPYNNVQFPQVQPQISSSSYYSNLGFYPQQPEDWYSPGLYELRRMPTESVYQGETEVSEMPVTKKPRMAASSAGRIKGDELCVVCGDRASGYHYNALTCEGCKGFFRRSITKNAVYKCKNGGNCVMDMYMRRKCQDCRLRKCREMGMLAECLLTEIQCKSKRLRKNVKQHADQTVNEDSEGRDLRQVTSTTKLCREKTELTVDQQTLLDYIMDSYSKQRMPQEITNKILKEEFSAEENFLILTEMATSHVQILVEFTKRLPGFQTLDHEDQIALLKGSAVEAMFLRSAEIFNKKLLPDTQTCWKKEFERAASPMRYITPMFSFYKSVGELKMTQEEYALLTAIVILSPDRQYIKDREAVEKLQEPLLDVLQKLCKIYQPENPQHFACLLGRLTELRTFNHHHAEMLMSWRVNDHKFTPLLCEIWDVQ

The chains behind the UniProt entries cited, without tags or fusion partners. Where a name states a change or a piece, a line headed by the entry shows the natural chain unless it says otherwise.
UniProt P19793: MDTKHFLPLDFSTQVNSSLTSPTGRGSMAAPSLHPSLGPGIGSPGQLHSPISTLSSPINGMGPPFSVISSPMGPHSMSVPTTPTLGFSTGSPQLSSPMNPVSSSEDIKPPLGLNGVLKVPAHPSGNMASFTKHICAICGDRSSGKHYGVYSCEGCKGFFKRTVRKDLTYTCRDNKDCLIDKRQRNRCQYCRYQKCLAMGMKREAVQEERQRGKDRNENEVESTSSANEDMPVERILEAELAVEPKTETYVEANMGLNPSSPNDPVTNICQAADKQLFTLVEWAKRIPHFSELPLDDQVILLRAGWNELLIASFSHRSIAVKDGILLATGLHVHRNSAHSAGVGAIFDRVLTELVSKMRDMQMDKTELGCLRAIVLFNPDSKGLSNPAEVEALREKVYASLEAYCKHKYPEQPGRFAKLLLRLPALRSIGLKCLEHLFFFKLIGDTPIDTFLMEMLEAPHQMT

RXRalpha (Homo sapiens) = RXRalpha (Homo sapiens) (UniProt P19793); experiment: activity in cells; details: RXRalpha alone not activated by 50 uM JH III; protein in cells; protein details: CMV-driven expression in CV-1 cells; variant of hsp27-EcRE; only the site is given

Sequence: GGTTCAATGCACT (double strand) [hsp27-EcREx5 MTV-luciferase reporter]
- activity on this sequence [1]: not active
- activity on this sequence (RXRalpha (Homo sapiens)): not active

Source: patent publication US6416957
